Assay results reported in PMC4287450, “PRDM9 Drives Evolutionary Erosion of Hotspots in Mus musculus through Haplotype-Specific Initiation of Meiotic Recombination”.
For at least one entry, the source does not settle the construct or the ends of the probe. For some of these results: Negatives hold for the conditions tested. For some of these results: At least one verdict was read from the data and is not stated in words by the source.

Protein sequences, listed by entry. Tags and fused reporters are not part of them. Residues count along the entry.
UniProt Q96EQ9, 513-843: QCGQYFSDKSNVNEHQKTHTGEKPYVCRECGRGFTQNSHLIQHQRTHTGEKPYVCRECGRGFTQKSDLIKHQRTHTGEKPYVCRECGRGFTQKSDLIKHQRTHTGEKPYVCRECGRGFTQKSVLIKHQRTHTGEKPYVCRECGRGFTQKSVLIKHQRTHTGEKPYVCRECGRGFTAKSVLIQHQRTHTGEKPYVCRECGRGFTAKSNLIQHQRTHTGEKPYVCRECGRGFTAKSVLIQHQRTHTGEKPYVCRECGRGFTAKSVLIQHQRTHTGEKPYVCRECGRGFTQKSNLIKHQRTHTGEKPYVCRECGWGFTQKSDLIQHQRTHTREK

How the values were obtained:
[1] = target: PRDM9Dom2 (Mus musculus domesticus (B6 allele)) (UniProt Q96EQ9); experiment: competition with a labelled probe; settings: 20x unlabeled, only oligo 1 competes; EMSA as in Billings et al. 2013 (buffer, pH, temperature not given); unlabeled competitor dsDNA at 20x labeled DNA; recombinant protein
[2] = target: PRDM9Dom2 (Mus musculus domesticus (B6 allele)) (UniProt Q96EQ9); experiment: EMSA; settings: EMSA as in Billings et al. 2013 (buffer, pH, temperature not given); unlabeled competitor dsDNA at 20x labeled DNA; recombinant protein; label: 5' biotin (forward primer); probe letters rebuilt from the primers and the genome

Sequence | binding result [1] | binding result [2]
TGCAGTTGGCTTTCTTTCATTTTGCTTTCAGCTCTGCAGAGTCGACCCC (double strand) [chr1_158 oligo 3] | no binding | –
TACACTGGGCTTCAGGCTGCCATATGTAAATGCTGGGAGCGGTATATACCCATCTACAACATGAAGCTACTGTAACTTTAGTTTTTTTTCTCTCTAAACTCATAGTCCTGGGA (double strand) [chr1 185.33 Mb CAST PCR product] | – | binds
AAGTGCTCCATGGACAGTAGCTTCTGCCTTTCCTTCCCAATAGTGCAGTTGGCTTTCTT (double strand) [chr1_158 oligo 2] | no binding | –
TCTGCAGAGTCGACCCCAGCCCTCTCCTTTCTGTTGGCAGTAGAGTGCCCGACTAACCCTTCT (double strand) [chr1_158 oligo 4] | no binding | –
